Data: publication PMC8458969
No constants are given. Whether binding was seen depends on the method and setting. A result given as binding can be weak or reduced; the word gives no strength.

Target: GmPGL2 (Glycine max pale green leaf 2), Gal4 DNA-binding domain fusion (soybean (Glycine max)) (UniProt K7KQ04)
Assay: two-hybrid; Gal4-based, Matchmaker Gold system; GmPGL2 or GmPGL2m in pGBKT7-BD, MORF/ORRM in pGADT7-AD; strain Y2H Gold; growth on SD/-Ade/-His/-Leu/-Trp (QDO), 48 h at 28°C

Substance | binding
GmMORF8, Gal4 activation domain fusion (from UniProt I1M324) | binds
GmMORF9, Gal4 activation domain fusion (from UniProt I1ME71) | binds
GmORRM6, Gal4 activation domain fusion (from UniProt C6SVN2) | binds
